# The supplement of paper PMC9233669
# This sample is rich in variants without activity.
# What was measured:
# [1] = tested on: biotinyl-Trp-oxazolone; assay: self-aminoacylation, catalytic enhancement (BWO) (fold over background); higher = more active; k-Seq, kA / k0A0; sequences stand for … in GGGAAUGGAUCCACAUCUACGAAUUC…UUCACUGCAGACUUGACGAAGCUG
# Summary of the method: (§1)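 The uncatalyzed rate is the low-activity peak of a bimodal Gaussian fit, and catalytic enhancement is median kA divided by it. The kA values came from pseudo-first-order fits, with 1000 bootstraps, of per-sequence fraction reacted measured by streptavidin capture, triplicate qPCR and Illumina sequencing. Mutagenized RNA pools with a 21-nt variable region (0.43 μM) were reacted with each biotinyl-aminoacyl-oxazolone at 2–1250 μM in 50 μL HEPES/NaCl/KCl/MgCl2/CaCl2 buffer with 5% acetonitrile, pH 6.9–7.0, for 90 minutes at room temperature.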
# [2] = tested on: biotinyl-Leu-oxazolone; assay: self-aminoacylation, catalytic enhancement (BLO) (fold over background); higher = more active; k-Seq, kA / k0A0; sequences stand for … in GGGAAUGGAUCCACAUCUACGAAUUC…UUCACUGCAGACUUGACGAAGCUG
# Summary of the method: as §1
# [3] = tested on: biotinyl-Val-oxazolone; assay: self-aminoacylation, catalytic enhancement (BVO) (fold over background); higher = more active; k-Seq, kA / k0A0; sequences stand for … in GGGAAUGGAUCCACAUCUACGAAUUC…UUCACUGCAGACUUGACGAAGCUG
# Summary of the method: as §1
# [4] = tested on: biotinyl-Ile-oxazolone; assay: self-aminoacylation, catalytic enhancement (BIO) (fold over background); higher = more active; k-Seq, kA / k0A0; sequences stand for … in GGGAAUGGAUCCACAUCUACGAAUUC…UUCACUGCAGACUUGACGAAGCUG
# Summary of the method: as §1
# [5] = tested on: biotinyl-Met-oxazolone; assay: self-aminoacylation, catalytic enhancement (BMO) (fold over background); higher = more active; k-Seq, kA / k0A0; sequences stand for … in GGGAAUGGAUCCACAUCUACGAAUUC…UUCACUGCAGACUUGACGAAGCUG
# Summary of the method: as §1
Sequence,self-aminoacylation [1],self-aminoacylation [2],self-aminoacylation [3],self-aminoacylation [4],self-aminoacylation [5]
AAAUUUGCUAAUAGUCGAAAG [Fam3.1 aminoacylation ribozyme variant],1.43,1.27,1.17,1.55,1.44
AAGAUUGCUGAUAGUCGCAAG [Fam3.1 aminoacylation ribozyme variant],1.53,1.94,1.53,1.85,1.56
AAGCUUCCUAAUAGUCGCAAG [Fam3.1 aminoacylation ribozyme variant],1.25,1.33,1.68,1.98,1.5
AAGCUUGCUAAUAGUCCCAAG [Fam3.1 aminoacylation ribozyme variant],1.73,1.32,1.04,1.34,1.5
AAGGUUGCCAAUAGUCGCAAG [Fam3.1 aminoacylation ribozyme variant],1.53,1.72,1.5,1.54,1.27
AAGGUUGCUAAUAGUCGCACG [Fam3.1 aminoacylation ribozyme variant],1.09,1.3,0.86,1.09,1.14
AAGGUUGCUAAUGGUCGCAAG [Fam3.1 aminoacylation ribozyme variant],0.994,0.828,1,1.06,0.949
AAGGUUGCUGAUAGUCGCAAG [Fam3.1 aminoacylation ribozyme variant],1.44,1.33,1.43,1.71,1.1
AAGUAUGCUAAGAGUCGCAAG [Fam3.1 aminoacylation ribozyme variant],1.69,1.71,1.14,1.37,1.58
AAGUCUGCUAAAAGUCGCAAG [Fam3.1 aminoacylation ribozyme variant],6.66,1.72,1.23,1.35,1.92
AAGUUAGCUGAUAGUCGCAAG [Fam3.1 aminoacylation ribozyme variant],1.9,1.86,1.81,1.66,1.28
AAGUUCGGUAAUAGUCGCAAG [Fam3.1 aminoacylation ribozyme variant],1.98,1.86,1.91,1.84,1.69
AAGUUGGCUAAAAGUCGCAAG [Fam3.1 aminoacylation ribozyme variant],1.51,1.67,1.49,,1.46
AAGUUGGCUAAUAGUCGCCAG [Fam3.1 aminoacylation ribozyme variant],1.15,1.33,1.44,1.76,1.38
